Our source for the AC50 values is PubChem BioAssay AID493014 (National Center for Advancing Translational Sciences (NCATS), 2011).

The nature of this assay: qHTS Assay to Find Inhibitors of Chronic Active B-Cell Receptor Signaling. The conditions noted are these: ABC-DLBCL IkBa-CBG/CBR reporter, luminescence ratio (green luciferase fused to IkBa over red control in TMD8 lymphoma cells), 4 h. The method, boiled down: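 Compounds up to 46 uM were incubated four hours with TMD8 cells whose green CBG68 luciferase is fused to IkappaBalpha; red CBR luminescence normalised the signal, and concentration-effect curves were fitted to fusion, red and ratio data.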
On the technique in general: In qHTS, concentration-response curves come from the screen itself.

The mark [1] stands for this setting: measured here: CBR red luminescence, cell number.

This is one part of the list. Further columns of the screen follow, without active or inactive calls. Compounds called inactive in the main read-out are mostly missing here. Words in brackets tell the shape of the fitted curve; partial curves, single points and poor fits give uncertain potencies.

As for `O=c1c2ccccc2[nH]c(=S)n1C1CCCCC1`, the AC50 under setting [1] was 6.31 µM [rising, partial curve, poor fit]. On the same count and under the same terms, for `CCCn1c(COc2ccc(C(=O)O)cc2)nc2ccccc21` the value was 2.82 µM [rising, full curve, poor fit]; for `O=S(=O)(NC1CCCC1)c1cccc(-c2nnc(-c3ccccc3)o2)c1`, 11.6 µM [falling, single point]; for `O=C(Oc1cccc(NC(=O)c2ccco2)c1)c1ccc(Br)c(S(=O)(=O)N2CCCCC2)c1`, 11.6 µM [falling, partial curve, poor fit]. As for `Cc1ccc(OC(=O)c2cccc(S(=O)(=O)N(C)C)c2)c(-n2nc3ccccc3n2)c1`, the AC50 under setting [1] is 1.64 µM [rising, full curve, poor fit].

Regarding `COc1ccc(NC(=O)COCc2cc(-c3cccs3)on2)cc1`, under setting [1], the AC50 was 2.82 µM [rising, full curve, poor fit]. For the compound `CCOc1ccc(C(C(=O)NC2CCCC2)N(C(=O)c2snc(C(N)=O)c2N)c2cccc(O)c2)cc1` (configuration not stated), under setting [1], the AC50 was 14.1 µM [rising, partial curve, poor fit]. Still for that read-out and setting: for `Cc1ccc(C(=O)CSc2nc3ccccc3c(=O)n2N)o1` the value was 35.5 µM [falling, single point]; for `CC(C)c1ccc(C2(C)NC(=O)N(C(C)C(=O)Nc3ccc(N4CCOCC4)cc3)C2=O)cc1` (configuration not stated), 3.26 µM [falling, partial curve, poor fit]; for `Cc1ccc(C)c(OCCn2cc(C(=O)O)c3ccccc32)c1`, 7.94 µM [falling, partial curve, poor fit]. In the case of `O=C(Nc1ccc(Cl)cn1)c1ccc2nccnc2c1`, the AC50 under setting [1] is 6.31 µM [falling, partial curve, poor fit].

As for `O=C1CC(C(=O)Nc2ccccc2)S/C(=N\N=C\c2ccco2)N1` (configuration not stated), the AC50 under setting [1] is 0.517 µM [rising, full curve, poor fit].

In the case of `COc1ccc(/C=N/OC(=O)Nc2ccccc2OC)cc1`, the half-maximal activity concentration (AC50) under setting [1] was 11.2 µM [falling, partial curve].

As to `CCC1(CC)Nc2ccccc2C(=O)N1c1ccc(NC(C)=O)cc1`, the AC50 under setting [1] was 12.6 µM [falling, partial curve]. Still for that read-out and setting: for `O=C(NCc1ccccc1Cl)c1ccc2c(c1)OCO2` the value was 0.447 µM [falling, full curve, poor fit]; for `O=C(Nc1ccc2c(c1)OCO2)C1CCN(Cc2cnn(-c3ccccc3)c2-n2cccc2)CC1`, 18.4 µM [rising, single point]. Same read-out and setting: for `Clc1ccc(OCc2cc(-c3ccccc3)no2)c(Cl)c1` the value was 11.6 µM [falling, partial curve, poor fit]; for `O=C(N/N=C/c1ccc(OC(=O)c2cccs2)cc1)c1cccc(F)c1`, 7.31 µM [falling, partial curve, poor fit]. Still for that read-out and setting: for `Cc1ccc(N2C(=O)C(Cl)=C(NCCO)C2=O)c(C)c1` the value was 6.51 µM [rising, single point]. With `CCN=C1SC(CC(=O)NC(C)C)C(=O)N1CC` (configuration not stated), the concentration at half-maximal activity (AC50) under setting [1] was 0.206 µM [falling, full curve].

`CC(=O)[C@@]1(O)[C@H](C)CC2C3CC=C4CC(OP(=O)(O)O)CC[C@]4(C)C3CC[C@@]21C` (some centres not stated): the AC50 under setting [1] is 3.55 µM [rising, partial curve]. Take `CC(C)NC(=O)CSc1nnc(-c2ccc(F)cc2)c2ccccc12`: the half-maximal activity concentration (AC50) under setting [1] was 12.6 µM [falling, single point]. Still for that read-out and setting: the result for `COc1ccccc1/C=N/NC(=O)c1cc2c(OC)c(OC)ccc2[nH]1` reads 2.51 µM [rising, full curve, poor fit]; that for `CSc1nc2c(c(=O)n1C)SC(C)C2` (configuration not stated), 20.6 µM [rising, partial curve, poor fit]. The same measure, in the same setting: for `COC(=O)c1cc2c(ccn2-c2ccc(F)cc2)n1Cc1cccc(OC)c1` the value was 0.82 µM [rising, full curve, poor fit]. Turning to `Cc1cc(NC(=O)c2sc(Nc3ccc(F)cc3)nc2N)no1`, the half-maximal activity concentration (AC50) under setting [1] was 12.6 µM [falling, partial curve, poor fit] and the AC50 (measured here: IkBa-CBG green luminescence) is 12.6 µM [rising, partial curve, poor fit]. As to `O=C(c1ccco1)N1CCN(C(=O)c2cccc3c2C(=O)N(Cc2cccnc2)C3)CC1`, the half-maximal activity concentration (AC50) under setting [1] was 29.1 µM [falling, single point]. `Clc1ccc2c(N/N=C/c3cccnc3)ccnc2c1`: under setting [1], the AC50 was 12.6 µM [falling, single point]. On to `CCOC(=O)CNS(=O)(=O)c1cc(-c2nnc(Nc3ccc4c(c3)OCO4)c3ccccc23)ccc1C`, for which, under setting [1], the half-maximal activity concentration (AC50) was 13 µM [falling, partial curve]. For `Clc1ccc(-c2cn3nc4c(nc3n2)CCCC4)cc1`, under setting [1], the half-maximal activity concentration (AC50) is 14.6 µM [falling, single point]. As for `CCCNC(=O)c1cc(-c2ccco2)on1`, the AC50 under setting [1] is 9.2 µM [falling, partial curve].

`COc1ccc(NC(=O)c2ccc(-c3csc(C)n3)cc2)cc1`: the AC50 under setting [1] was 6.31 µM [falling, single point]. With `O=C(Oc1ccccc1C(=S)N1CCOCC1)c1ccccc1`, the AC50 under setting [1] is 3.55 µM [rising, full curve, poor fit]. Consider `COc1cccc(-c2ccc(NC(=O)C3CCCN(Cc4cnc(N(C)C)s4)C3)cc2)c1` (configuration not stated), for which, under setting [1], the AC50 was 22.4 µM [falling, single point]. Still for that read-out and setting: for `CC(CCc1ccccc1)NC(=O)C(C)OC(=O)c1ccco1` (configuration not stated) the value was 8.2 µM [rising, partial curve, poor fit]; for `COc1ccccc1NC(=O)Cc1coc2cc(C)ccc12`, 0.146 µM [falling, full curve, poor fit]. Still for that read-out and setting: the result for `Cc1ccc(S(=O)(=O)CCC(=O)Oc2ccc(-c3nnco3)cc2)cc1` reads 16.4 µM [falling, single point]; that for `CNC(=O)COC(=O)/C=C/c1nc2ccccc2s1`, 3.55 µM [falling, full curve]. Still for that read-out and setting: the result for `Cc1cccc(OCc2nc(-c3cccnc3)no2)c1` reads 0.461 µM [rising, full curve, poor fit]. In the case of `COc1ccc(C(=O)Nc2ccccc2C(=O)NC(Cc2ccc(O)cc2)C(=O)NNC(=O)c2ccccc2Cl)cc1` (configuration not stated), under setting [1], the AC50 is 29.1 µM [falling, single point]. The same measure, in the same setting: the result for `COC(=O)c1sc(NC(=O)CSc2nnc(C(C)C)n2C)nc1C` reads 6.51 µM [falling, partial curve, poor fit].

As usually defined, the AC50 is the midpoint of the concentration-response curve, whichever way the signal moves.
